Test results from patent publication US20050221328A1, “Inhibitors of inflammatory gene activity and cholesterol biosynthesis” (Wyeth, priority 2002, published 2005).
At least one structure is not confirmed: it was looked up by name or label, or the drawing left a doubt.

System: hepatic inflammatory gene expression
Details: 5 days
Experimental: Ovariectornized C57BL/6 mice (16-20g) (Taconic) were separated into groups of 8. After 5-7 days of recuperation, the mice were fed a casein based diet (#8117, Test Diet, Richmond, IN) for five days. […] At the end of the experimental period, the liver was collected for RNA analysis.
Liver total RNA was prepared using Trizol reagent (BRL) and quantitated by real time RT-PCR using an ABI PRISM 7700 Detection System according to the manufacturer's protocol (Applied Biosystem). The data was analyzed using the Sequence Dector v1.7 software (Applied Biosystems) and normalized to GAPDH using Applied Biosystems primer set.
Feeding C57BL/6 mice a high fat diet containing cholate has been shown previously to induce inflammatory gene expression in the mouse liver after 3-5 weeks (Liao et al '93 JCI 91:2572, Evans et al. '01 Circ Res 89:823 & Miyake et al '00 JBC 275:21805). […]
In particular, referring to FIG. 21a-d, C57BL/6 mice were fed either a chow, atherogenic or high fat diet (atherogenic diet without sodium cholate) as indicated. After 5 weeks, hepatic mRNA levels of the indicated genes were determined by real time PCR. […] After 5 days, hepatic mRNA levels of the indicated genes were determined by real time PCR. […] After 5 days, hepatic mRNA levels of the indicated genes were determined by real time PCR. […]

SMILES: C[C@H](CCC(=O)O)[C@H]1CC[C@H]2[C@@H]3[C@@H](O)C[C@@H]4C[C@H](O)CC[C@]4(C)[C@H]3CC[C@]12C [UDCA, ursodeoxycholic acid]
- inflammatory gene expression in liver (1% UDCA in chow diet): no induction
- induction of hepatic SHP expression (mice fed 1% CA or UDCA): not UDCA
